# Results: patent publication US20180371433A1 (UNIVERSITY OF FLORIDA RESEARCH FOUNDATION, published 2018)
# No constants are given. Whether binding was seen depends on the method and setting. In cells and extracts the contact can be indirect. Some binding calls cover weakened binding; strength is not graded here. Tags and fused reporters may be left off the sequences shown.
# B1: HvPPA with an N-terminal poly-histidine tag (His6-HvPPA) linked with a thrombin-cleavage site (enzyme)
# chain: MVNLWEDMETGPNAPDEIYAVVECLKGERNKYEYDKDIPGVVLDRVLHSNVHYPSDYGFIPQTYYDDEDPFDVLVLVEDQTFPGCVIEARPVALMKMDDDGEQDDKVIAVPVEDPRYDHIEDLDDIPQQTLDEIDEFFATYKNLEAGKEVETLGWEDKQAAKDAIEHAMDLYEENFA
# notes: Expressed in Hfx. volcanii H26-pJAM2920; Purified by Ni2+ IMAC and SEC as homo-hexamers (~134 kDa) and homo-trimers (~64 kDa); also called HVO_0729; Haloferax volcanii inorganic pyrophosphatase; not shown: N-terminal His6 tag and thrombin-cleavage site from vector pJAM503
# Target: T1, genome-encoded HvPPA (Haloferax volcanii) (UniProt D4GT97)
# T1 sequence: B1 chain
# Assay: co-purification by Ni2+ IMAC and SEC, seen on SDS-PAGE
binder,measurement,value
B1,binding,binds
